According to patent US20140256664A1, “COMPOSITIONS AND METHODS FOR A MYCOBACTERIUM TUBERCULOSIS DRUG SUSCEPTIBILITY TEST” (priority 2011, published 2014):

System: M. tuberculosis isolates
Experiment: microbe, parasite or virus in culture
Assay type: cell-based, Mycobacterium tuberculosis

For `NNC(=O)c1ccncc1` [Isoniazid, isoniazid], which MIC (Mycobacterium tuberculosis, read-out: MIC of agar proportion resistant isolates) is on record?
The MIC was 2 µg/mL.

And the “MIC of agar proportion resistant isolates” value (listed as INH)?
The value was 4 µg/mL.
